Values of other authors as cited in patent US12338266B2 (GENETIC S.P.A., priority 2019, dated 2025).
Some of these results come from one statement about several compounds together.

Conditions: in vivo; cited from earlier work

For `C[C@]12C=CC(=O)C=C1CC[C@@H]1[C@@H]2[C@@H](O)C[C@@]2(C)[C@H]1C[C@H]1O[C@@H](C3CCCCC3)O[C@]12C(=O)CO` [Des-ciclesonide, C21-desisobutyryl-ciclesonide], the oral bioavailability is listed as “less than 1%”.
